About 170 (0.05%) of roughly 340,000 compounds were called active. Inconclusive results, whose numbers are uncertain, are shown with a selection of clear calls. Calls come from the whole dose curve; as a rule, active = well fitted inhibition curve with a large enough effect in the signal ratio, with a control signal flat (not every such curve was filed as active); inconclusive = small, poorly fitted or top-dose-only effect, or effect the other way, or a change in a side signal; inactive = flat fitted curve, though single readings scatter; the % refers to the signal ratio. Potencies of inconclusive entries are doubtful fits and often do not repeat.
Assay: qHTS Assay to Find Inhibitors of Chronic Active B-Cell Receptor Signaling;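 for activity change, negative = inhibition: plate controls were basal doxycycline-induced cells for no effect and cells given 10 µM MG132 for full effect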
Conditions: ABC-DLBCL IkBa-CBG/CBR reporter, luminescence ratio (green luciferase fused to IkBa over red control in TMD8 lymphoma cells), 4 h; activity change, negative = inhibition: at 46.1 µM (top of the series)
In short: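 Cell line TMD8 (human ABC DLBCL), stably expressing tet-inducible CBG68-IkBa fusion and CBR; IMDM/0.5% FBS; cpd up to 46 uM; dox induction, 4 h, 37C/5% CO2; dual luminescence; green/red ratio; MG132 control.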
Potency is the fitted concentration of half-maximal effect.

Row | Structure (SMILES) | activity change, negative = inhibition | Potency
1 | CC(=O)c1sc(NC(=O)c2ccc(C)cc2)nc1C | inconclusive: 15.5% | 
2 | Cc1c(C(=O)N(C)C)sc2c1c(=O)n(-c1ccc(F)cc1)c(=O)n2Cc1cc(=O)n2ccccc2n1 | inactive | 
3 | Cc1cc(C(=O)Nc2c(C)nn(Cc3ccc(Cl)cc3)c2C)no1 | inactive | 
4 | CC(C)(C)OC(=O)NCCCC[C@@H](C(=O)NCCCCCCCCCCC(=O)N1CCN(C(=O)OC(C)(C)C)CC1)n1cc(CCO)nn1 | inconclusive: -17.5% | 
5 | CCOC(=O)C(=CNNc1c(C)csc1C(=O)OC)C(=O)OCC |  | inconclusive: 15.8 µM [falling, partial curve, poor fit]
6 | CCCCCC[N+](C)(C)CC/C=C1/c2ccccc2Sc2ccc(Cl)cc21 | inactive | 
7 | Cc1ccc2oc(-c3ccccc3)c(C(=O)O)c(=O)c2c1 | inactive | 
8 | O=C(CSc1ncnc2c1cnn2-c1ccccc1)NC1CCCC1 | inactive | 
9 | c1ccc(COc2ccc(CNn3cnnc3)cc2)cc1 |  | inconclusive: 29.1 µM [falling, partial curve, poor fit]
10 | CCOC(=O)c1cccc(C(=O)Nc2nc3ccc(OC)cc3s2)n1 | inactive | 
11 | CCCCCC[n+]1c(-c2ccc(Cl)cc2Cl)csc1Nc1ccccc1 | inactive | 
12 | COc1cc(-c2nnc(COc3ccc(Cl)cc3C)o2)cc(OC)c1OC | inconclusive: -4.82% | 
13 | O=c1cc(-c2ccc(F)cc2)[nH][nH]1 |  | inconclusive: 23.1 µM [cytotoxic, single point]
14 | O=C(NCCCn1ccnc1)/C(=C\c1cccnc1)NC(=O)c1ccccc1F | inactive | 
15 | CCCCNC(=O)c1ccc(N2CCC3(CC2)OCCO3)c([N+](=O)[O-])c1 | inconclusive: 5.11% | 
16 | Cc1cccc(NC(=O)CN2C(=O)S/C(=C\c3ccc(-c4cccc(C(=O)O)c4C)o3)C2=O)c1 | inconclusive: -11.6% | 
17 | Cc1cccc(-c2ocnc2C(=O)Nc2ccccc2C(=O)N2CCCC2)c1 | inconclusive: -8.35% | 
18 | COc1cc(SC)ccc1C(=O)Nc1ncc(Cl)cc1Cl | inconclusive: 6.07% | 
19 | O=C(Nc1ccccc1)c1nn(-c2ccccc2)c(=O)cc1C(F)(F)F | inactive | 
20 | O=C(CSc1nnc(-c2ccccc2O)o1)N1CCc2ccccc2C1 | inconclusive: -9.97% | 
21 | O=C(Cn1nc(C(=O)O)c2ccccc2c1=O)c1c[nH]c2ccccc12 | inconclusive: -15.2% | 

Row | Structure (SMILES) | activity change, negative = inhibition | Potency
22 | CC1(CCc2ccc(O)cc2)NC(=O)NC1=O (centres undefined) | inconclusive: -2.25% | 
23 | Cc1nnc(SCC(=O)Nc2cccc(S(=O)(=O)N3CCCCC3)c2)s1 | inconclusive: 0.683% | 
24 | COc1ccc(S(=O)(=O)N(C(=O)c2ccncc2)c2ccc3oc4c(c3c2)CCCC4)cc1 |  | inconclusive: 5.17 µM [falling, single point]
25 | COC(=O)C(N)Cc1ccc(O)c(O)c1 (centres undefined) | inconclusive: 0.471% | 
26 | O=C(CCCc1ccccc1)Nc1cccc([N+](=O)[O-])c1 | inactive | 
27 | Fc1ccc(-c2nnc3ccc(N4CCc5ccccc5C4)nn23)cc1 | inconclusive: -117% | 
28 | CCOc1ccc(CC2S/C(=N/c3ccccn3)NC2=O)cc1 (centres undefined) | inconclusive: 0.735% | 
29 | O=C(N/N=C/c1ccccn1)c1ccccc1 |  | inconclusive: 5.17 µM [falling, single point]
30 | Cc1sc(NC(=O)c2ccco2)c(C(c2cccnc2)N2CCN(C)CC2)c1C (centres undefined) | inconclusive: -6.01% | 
31 | CCc1ccc(-n2c(=O)c3ccc(C(=O)NCCc4ccccc4)cc3n(CC(N)=O)c2=O)cc1 | inconclusive: 2.52% | 
32 | Cc1ccccc1C(=O)N1CCN(c2ccc(NC(=O)c3ccc4c(c3)OCO4)cc2)CC1 |  | inconclusive: 35.5 µM [falling, single point]
33 | CCn1c(SCC(=O)Nc2ccccc2N2CCOCC2)nnc1-c1ccccc1O | inconclusive: 19% | 
34 | CCOC(=O)CC1C(=O)NCCN1Cc1cccc(C(F)(F)F)c1 (centres undefined) | inconclusive: -11.9% | 
35 | Cc1ccc(OC(C)C(=O)Nc2ccccc2C(=O)NCc2cccnc2)cc1C (centres undefined) | inconclusive: -3.45% | 
36 | CCS(=O)(=O)c1nc2ccccc2n1Cc1ccccc1Cl | inactive | 
37 | Cc1ccc2nc(SCC(=O)c3ccc(O)cc3O)[nH]c2c1 |  | inconclusive: 0.562 µM [rising, full curve]
38 | CCN(CC)CCC(=O)N1c2ccccc2Sc2ccc(NC(=O)OC)cc21 | inconclusive: 3.17% | 
39 | C=CCNc1nc(-c2cc3ccccc3o2)cs1 |  | inconclusive: 29.1 µM [rising, single point]
40 | O=C(CCCN1C(=O)/C(=C/c2ccc(F)cc2)SC1=S)NCCCn1ccnc1 |  | inconclusive: 12.6 µM [falling, partial curve]
41 | COc1cc(C2C3C(=O)N(c4ccccc4)C(=O)C3ON2c2ccccc2)ccc1O (centres undefined) | inconclusive: -9.91% | 
42 | S=C1NC(c2ccccc2)=NCN1c1ccccc1 | inconclusive: -0.299% | 

Row | Structure (SMILES) | activity change, negative = inhibition | Potency
43 | CCCCCc1c(C)nc(Nc2ccccc2)[nH]c1=O | inconclusive: 12% | 
44 | COc1ccccc1NC(=O)c1ccc(Br)o1 | inconclusive: -1.66% | 
45 | CCC/C(O)=C1\C(=O)CC(C)(C)CC1=NCc1ccccc1 | inconclusive: 0.995% | 
46 | OCCCCNc1cccc2ccccc12 | inactive | 
47 | Cc1ccc(NC(=O)CSc2nc(-c3ccco3)nc3cc(=O)[nH]n23)c(Cl)c1 | inconclusive: 8.02% | 
48 | O=C(Nc1cccc(N2C(=O)C3CCCCC3C2=O)c1)c1ccccc1 (centres undefined) | inconclusive: 0.325% | 
49 | COc1ccccc1-c1cc(C(F)(F)F)nc(S(=O)(=O)CCCC(=O)O)n1 |  | inconclusive: 14.6 µM [rising, partial curve]
50 | COc1cccc(C(=O)Nc2nc3ccc(S(C)(=O)=O)cc3s2)c1 |  | inconclusive: 31.6 µM [rising, partial curve]
51 | COc1ccccc1C(CNc1ncnc2sc(C)c(C)c12)N(C)C (centres undefined) |  | inconclusive: 12.6 µM [falling, partial curve, poor fit]
52 | COc1cc2c(cc1NC(=O)CSc1nccn1C)oc1ccccc12 | inconclusive: 13.5% | 
53 | C=CCN(c1ccc(Cl)cc1)S(=O)(=O)c1cccc(C(=O)OCC(=O)N(C)C)c1 | inconclusive: -15.1% | 
54 | CCOc1ccc2nc(N(CCCN(C)C)C(=O)c3ccc4c(c3)CCCC4)sc2c1 | inactive | 
55 | O=C(NCC1CCCO1)c1cccc(NC(=O)c2ccc(Br)cc2)c1 (centres undefined) | inconclusive: -2.36% | 
56 | Cc1ccc(S(=O)(=O)N2CCOCC2)cc1C(=O)OCC(=O)NCc1ccc2c(c1)OCO2 | inconclusive: -3.61% | 
57 | O=C(N/N=C/c1cc2ccccc2[nH]1)c1ccccc1Cl |  | inconclusive: 20 µM [falling, partial curve]
58 | CCCOC(=O)C1C2C=C[C@]3(CN(CCc4ccccc4)C(=O)[C@H]13)O2 (some centres undefined) | inconclusive: 6.05% | 
59 | CCc1ccccc1Nc1nc2ccccc2n1C(C)C | inconclusive: 6.6% | 
60 | Cc1ccc(NS(=O)(=O)c2cc(NC(=O)c3ccc4c(c3)NC(=O)CS4)ccc2Cl)c(C)c1 | inactive | 
61 | O=C(N/N=C/c1cc(O)ccc1Br)c1cccnc1 | inconclusive: -12.3% | 
62 | O=C(CCCC(=O)N(CC(=O)NC1CCCCC1)c1ccccc1F)Nc1ccccn1 | inconclusive: -3.28% | 
63 | O=C1CC(c2cc(-c3ccccc3)no2)C1 | inactive | 

Row | Structure (SMILES) | activity change, negative = inhibition | Potency
64 | O=C(NCCc1ccccc1)c1ccc2nc(-c3ccco3)c(-c3ccco3)nc2c1 | inconclusive: 37.3% | 
65 | Cc1ccc(Nc2nnc(C(C)(C)C)c(=O)n2N)cc1 | inactive | 
66 | Cc1ccccc1NC(=O)Nc1ccc2c(c1)OCO2 |  | inconclusive: 7.94 µM [falling, partial curve]
67 | Cc1ccc(S(=O)(=O)NN2C(=O)/C(=C/c3cccn3C)SC2=S)cc1 |  | inconclusive: 13 µM [rising, partial curve, poor fit]
68 | O=C(Nc1ccccc1N1CCOCC1)c1cc2c(s1)CCCCC2 | inconclusive: 8.77% | 
69 | CC(C)(C)c1cc(C(=S)N2CCN(CCO)CC2)cc(C(C)(C)C)c1O | inactive | 
70 | O=C(NCc1ccc(-c2csnn2)cc1)c1cccs1 | inactive | 
71 | C=CCOc1ccc(/C=C2\SC(=Nc3cccnc3)NC2=O)cc1 | inactive | 
72 | CC(=O)c1cc2c(cc1N/C(=N/S(=O)(=O)c1ccc(C)cc1)c1ccc(Cl)cc1)OCO2 | inconclusive: 4.64% | 
73 | O=C(NNC(=S)NC(=O)c1ccco1)c1ccc(NC(=O)c2ccccc2)cc1 | inconclusive: -0.934% | 
74 | N#CC(C#N)=Cc1ccc(NC(=O)c2ccc(Br)cc2)cc1 | inactive | 
75 | NNC(=O)c1ccc(Cn2cc(Br)cn2)o1 | inconclusive: -15.2% | 
76 | O=C(CSC(=S)N1CCOCC1)Nc1nc(=O)c2ccccc2s1 |  | inconclusive: 20.6 µM [falling, partial curve]
77 | NC(=O)c1nn(-c2cccc(Cl)c2)c(=O)cc1O |  | inconclusive: 31.6 µM [falling, single point]
78 | N#Cc1cc(Cl)c(NCC2CCCO2)cc1C#N (centres undefined) | inconclusive: 0.0541% | 
79 | Cc1ccc(OC(=O)c2ccc(C)c(C)c2)cn1 | inconclusive: 3.15% | 
80 | CSc1nc(N)nc(SCC(=O)c2ccccc2)c1C#N |  | inconclusive: 25.1 µM [falling, single point]
81 | Cc1c(C(=O)NC2CCCCC2C)oc2ccccc12 (centres undefined) | inconclusive: 23.6% | 
82 | CN(C)S(=O)(=O)c1ccc(-c2csc(N/N=C/c3ccc(O)cc3)n2)cc1 |  | inconclusive: 35.5 µM [falling, single point]
83 | CCN1CCN(c2cc(C)c3cc(NC(=O)c4cc(OC)cc(OC)c4)ccc3n2)CC1 |  | inconclusive: 35.5 µM [falling, single point]
84 | C=C(C)CSc1nnc2n(C)c(=O)c3c4c(sc3n12)CCC4 |  | inconclusive: 1.64 µM [rising, full curve]

As entered above.
Entry for CN(C)S(=O)(=O)c1ccc(-c2csc(N/N=C/c3ccc(O)cc3)n2)cc1 under Potency: inconclusive: 35.5 µM [falling, single point]
Entry for CCN1CCN(c2cc(C)c3cc(NC(=O)c4cc(OC)cc(OC)c4)ccc3n2)CC1 under Potency: inconclusive: 35.5 µM [falling, single point]

Pulled by compound from above (2):
Row | Structure (SMILES) | activity change, negative = inhibition | Potency
22 | CC1(CCc2ccc(O)cc2)NC(=O)NC1=O (centres undefined) | inconclusive: -2.25% | 
15 | CCCCNC(=O)c1ccc(N2CCC3(CC2)OCCO3)c([N+](=O)[O-])c1 | inconclusive: 5.11% | 
